This passage reports yeast fitness results from the RNAGym collection of RNA variant scans (doi:10.1126/science.aae0568).

Variants at the floor of the assay are shown more often than the library holds them.

To fix the notation:
B1: tRNA (parent)
chain: GUUCCGUUGGCGUAAUGGUAACGCGUCUCCCUCCUAAGGAGAAGACUGCGGGUUCGAGUCCCGUACGGAACG

The series covers variants of B1. Briefly: yeast fitness relative to wild type (ratio to wild type); higher = fitter; tRNA-Arg(CCU), competitive growth, 37 C, YPD. The gist of the method: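 Amplicons of the tRNA-Arg(CCU) gene were sequenced, 100-nucleotide paired-end, from the start population and from each end population of a pooled yeast competition. The competition, in six parallel replicates, lasted 24 hours in YPD at 37°C. Fitness relative to wild type was calculated from changes in genotype frequencies. Genotypes had to have ≥ 100 starting reads, and estimates < 0.5 were set to 0.5.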
C5U A14G A45C A65C: the yeast fitness was at most 0.5.
The value for G9A C11U C60G C66U G68A was at most 0.5; that for C31A C33A was 0.509; that for C5A C22G U59G was at most 0.5.
The value for C5U G9A A43C C46U G56C was at most 0.5; that for U54G G63U was at most 0.5; that for U13A A15C U54G C66G G67C was at most 0.5.
The value for G10C A14G A45C was at most 0.5; that for U47C G50A G68C was 0.539.
As for U19C A43U G48C U54C C61G, the yeast fitness is at most 0.5.
In the case of C34U A36U U53A, the yeast fitness was at most 0.5.
Next, G10C C27G U47A: at most 0.5.
U8G C24U A36C C61U G68A: the yeast fitness is at most 0.5.
The value for A20G C29A A70C was at most 0.5; that for G9C G23A C24A C55A A70U was at most 0.5.
Next, C5A U47C C61G: at most 0.5; C27G G52A G63A: 0.533.
Next, C4A C34A G52C C60G: at most 0.5; C24U G38C A57C: at most 0.5; G9A C27A A42C C49G G51C C55G: at most 0.5.
For C33G C55G, the yeast fitness is at most 0.5.
The value for U8A C27A G39C G51C was at most 0.5; that for C11G C30A was 0.588.
For U3G G18A C30G G41U C49G A65U G67A, the yeast fitness was at most 0.5.
Next, C34G C66A: 0.543; C5U G18C C49U U54G: at most 0.5.
Next, G10A G25C C29A G52A: at most 0.5.
In the case of C30G A42U A45G G56A A69U, the yeast fitness is at most 0.5.
In the case of A21C G41C A70C, the yeast fitness is at most 0.5.
Next, G17A C30A A57U G58A: at most 0.5.
The value for G17C G18A C22A C31G C55G G68A was at most 0.5.
Next, U7A G25A G44C C61A C62U C66U: at most 0.5; C27U A36U U54A C61A A65U A69U: at most 0.5.
In the case of G18A U19A C61U, the yeast fitness was determined as 0.61.
The value for G18A U32C A43U was at most 0.5.
For A20G G58U A65G G67A, the yeast fitness was at most 0.5.
Turning to A42C A57C C61A, the yeast fitness was at most 0.5.
Next, U8G C33A G48C G52C: at most 0.5; U7A C22A C24U A36U C61A: at most 0.5.
On to U8A U47A G48A A65C, for which the yeast fitness is at most 0.5.
Next, C4A C5U C29G C33U U59G A69C: 0.533; A42C U47C U54A G67C A69U: at most 0.5; A15C A36C G38C G52A C61U: at most 0.5.
Take C34A U47C G51A A65G: the yeast fitness is at most 0.5.
Regarding C5A G23A C24U U53A G67U G68A, the yeast fitness is at most 0.5.
Regarding C11U U32A A43G U53A, the yeast fitness is at most 0.5.
Regarding C11U C27G C46G C62A, the yeast fitness was at most 0.5.
The value for U2C A20C C29G A36C G63A A70C was at most 0.5.
Next, G18A C30U C55G: at most 0.5; U3G G12C C55G C66U: at most 0.5.
For A14C G51C, the yeast fitness turned out to be 0.53.
For C27G U28A A65U, the yeast fitness was at most 0.5.
On to C27G A65U G68U A69G, for which the yeast fitness was at most 0.5.
Regarding C4U C11U C30G, the yeast fitness was at most 0.5.
A21U C22U C30G U59G A65U: the yeast fitness is at most 0.5.
With C5G C29A U53C C62A G67A, the yeast fitness was at most 0.5.
The value for U19G C31U U32A A45U A70U was at most 0.5; that for C27G C34G C55U was at most 0.5; that for U19A C49G G56U was 0.558.
Regarding C34A C46U A65C, the yeast fitness was found to be 0.569.
Turning to C34G U53G, the yeast fitness was at most 0.5.
The value for U7C G44A U47G G63C was at most 0.5; that for U8C C30G C31G A57U A65U was at most 0.5.
Regarding A21G G23C C27U G51C C55A C66U, the yeast fitness was at most 0.5.
As for A20G G41A C62G, the yeast fitness is at most 0.5.
Consider C11A C27G U35A A43U U54C, for which the yeast fitness came out at 0.556.
Turning to C11A C60G, the yeast fitness is at most 0.5.
For the variant C4U A21G C46A G68U, the yeast fitness amounted to 0.574.
In the case of U35C A37U A43C C46U C49U, the yeast fitness was at most 0.5.
The value for C11U C31G C34G A43U was at most 0.5; that for C5U C24G A40C A45U was at most 0.5.
Next, G10A A45U C61U: 0.536; G10A G52C: 0.528.
The value for C34G G50A C62U C66A was at most 0.5; that for C29U C34U C62A C66U was at most 0.5; that for G9C C27A C33U A36C C55U was at most 0.5.
Take G17C C29U A37C: the yeast fitness was at most 0.5.
Take C11G C29A C31G: the yeast fitness was at most 0.5.
The value for C11G A20G A21G G23C C30U C34A G51A U53C was at most 0.5; that for U13C A20G C30U C33U A69U A70G was at most 0.5; that for C5A U19C C30G G41A A45U C61G was at most 0.5.
Turning to C31U C33U A37G A70U, the yeast fitness is at most 0.5.
Next, C11U U19A G38A C60G: at most 0.5.
Consider U7A A40U, for which the yeast fitness was found to be 0.714.
